PubChem BioAssay AID1259254 – NCATS – 2017
Shown is one part, drawn at random, of about 59,000 reagents. About 1,550 of them (2.6%) were called active. 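G2 share is only a proxy for re-replication; each gene was hit by three separate siRNAs, and active genes were retested.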 Entries without a mark were called inactive. Reagents against one gene are numbered here. Further read-outs or replicates are left out here. Not given: the amount of reagent.

Purpose: 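Gene knock-downs that lead to re-replication, shown by excess G2 DNA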 (primary screen)
System: human HCT116 colorectal cancer cells
Knock-down reagent: single siRNA against human genes
Time to read-out: 3 days
Detection: 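Nuclei stained with Hoechst and imaged; cell-cycle phase assigned by DNA content; G2 share scaled per plate, non-targeting siRNA 0%, GMNN siRNA 100%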
Reading the numbers: G2 robust z-score: higher = more G2 cells, more excess DNA replication
Hit rule: 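An siRNA counts as active if its G2 robust z-score lies at least 5 MADs above the screen median; here such calls match roughly 38% of GMNN control or more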

For MAP3K11 (mitogen-activated protein kinase kinase kinase 11) #1, how do the results read?
G2 robust z-score: -0.659

For MAP3K11 (mitogen-activated protein kinase kinase kinase 11) #2, what was measured?
G2 robust z-score: 1.3

With MAP3K11 (mitogen-activated protein kinase kinase kinase 11) #3, what does the deposit list?
G2 robust z-score: 0.196

What did the screen give for SPIB (Spi-B transcription factor) #1?
G2 robust z-score: -1.2

With SPIB (Spi-B transcription factor) #2, how do the results read?
G2 robust z-score: -0.717

What did the screen give for SPIB (Spi-B transcription factor) #3?
G2 robust z-score: 4.04

With EPS8 (EGFR pathway substrate 8, signaling adaptor) #1, what was measured?
G2 robust z-score: -0.443

What did the screen give for EPS8 (EGFR pathway substrate 8, signaling adaptor) #2?
G2 robust z-score: 4.7

With EPS8 (EGFR pathway substrate 8, signaling adaptor) #3, how do the results read?
G2 robust z-score: 0.231

With TMEM11 (transmembrane protein 11) #1, what was measured?
G2 robust z-score: 3.33

With TMEM11 (transmembrane protein 11) #2, how do the results read?
G2 robust z-score: -0.946

With TMEM11 (transmembrane protein 11) #3, what was measured?
G2 robust z-score: 1.25

What did the screen give for NSUN7 (NOP2/Sun RNA methyltransferase family member 7) #1?
G2 robust z-score: -1.35

How did the screen score NSUN7 (NOP2/Sun RNA methyltransferase family member 7) #2?
G2 robust z-score: 8.22 (active)

What did the screen give for NSUN7 (NOP2/Sun RNA methyltransferase family member 7) #3?
G2 robust z-score: 0.252

Which result is listed for DZIP1L (DAZ interacting zinc finger protein 1 like) #1?
G2 robust z-score: 4.54

What did the screen give for DZIP1L (DAZ interacting zinc finger protein 1 like) #2?
G2 robust z-score: 1.25

For DZIP1L (DAZ interacting zinc finger protein 1 like) #3, how do the results read?
G2 robust z-score: -0.385

A portion taken from the entries so far, for reference:
EPS8 (EGFR pathway substrate 8, signaling adaptor) #1 → G2 robust z-score: -0.443
EPS8 (EGFR pathway substrate 8, signaling adaptor) #2 → G2 robust z-score: 4.7

Further records follow.
For DDX56 (DEAD-box helicase 56) #1, what does the deposit list?
G2 robust z-score: 4.71

For DDX56 (DEAD-box helicase 56) #2, how do the results read?
G2 robust z-score: 5.51 (active)

For DDX56 (DEAD-box helicase 56) #3, what does the deposit list?
G2 robust z-score: 5.72 (active)

With LSM7 #1, what was measured?
G2 robust z-score: -0.669

What is on record for LSM7 #2?
G2 robust z-score: 1.29

What did the screen give for LSM7 #3?
G2 robust z-score: 2.41

With ITFG1 (integrin alpha FG-GAP repeat containing 1) #1, how do the results read?
G2 robust z-score: 0.341

How did the screen score ITFG1 (integrin alpha FG-GAP repeat containing 1) #2?
G2 robust z-score: 3.25

What is on record for ITFG1 (integrin alpha FG-GAP repeat containing 1) #3?
G2 robust z-score: -0.603

How did the screen score ZNF154 (zinc finger protein 154) #1?
G2 robust z-score: -0.322

For ZNF154 (zinc finger protein 154) #2, how do the results read?
G2 robust z-score: -0.212

With ZNF154 (zinc finger protein 154) #3, what does the deposit list?
G2 robust z-score: 0.225
